Where “and” joins values, the source holds several entries; their conditions need not be identical. Identical values can stand only once. The whole screen tested about 300,000 compounds, of which about 5,400 (1.8%) were called active. Inconclusive means that the source gave no clear call. Such entries were picked first, then a sample of the others. The call rests on the fitted dose curve; tested in HEK293 cells. Where the call is inconclusive, the potency comes from a doubtful curve fit.
experiment: qHTS for inhibitors of binding or entry into cells for Marburg Virus; settings: Marburg virus pseudotyped entry inhibition, cell reporter; activity change, negative = inhibition: at 37.8 µM (top of the series) unless noted
On the % scale 0 is the no-effect control and ±100 the full control effect; potency means the concentration at half of the fitted maximal effect.

Row | SMILES | Potency | activity change, negative = inhibition
1 | N=c1c2c(ncn1CCN1CCOCC1)Oc1ccc3ccccc3c1C2c1ccccc1 (stereo unspecified) | inconclusive: 29.1 µM [activator, single point] | –
2 | COc1ccc2c(c1)[C@@]13CCCC[C@H]1[C@@H](C2)NCC3 | active: 18.3 µM | –
3 | CCOc1ccc(CCNC(=O)CCCn2nc(C)c3sc4ccccc4c3c2=O)cc1OCC | inconclusive: 31.6 µM [inhibitor, single point] | –
4 | COc1ccc(-n2c(COc3ccc(Cl)cc3)nnc2SCc2ccc(C#N)cc2)cc1 | inactive | –
5 | O=C(CCl)Nc1nc(-c2ccco2)c(-c2ccco2)s1 | inconclusive: 16.4 µM [inhibitor, partial curve, poor fit] | –
6 | Cc1csc(NC(=O)CSc2nccn2C)n1 | inconclusive: 14.1 µM [activator, single point] | –
7 | COCCCNC(=O)COc1cc2c(c3oc(=O)c(C)c(C)c13)CCC(C)(C)O2 | inactive | –
8 | COc1ccccc1Oc1cc(-n2nc(C)cc2C)ncn1 | inactive | –
9 | COc1ccc(/C=N/Nc2nncn2N)cc1Br | inconclusive: 35.5 µM [inhibitor, single point] | –
10 | Cc1ccc(Nc2nnc(SCc3cc(=O)n4ccsc4n3)s2)c(C)c1 | inactive | –
11 | C=CCn1c(SCC(=O)Nc2ccc3c(c2)OCO3)nnc1-c1cc(Br)ccc1O | inconclusive: 7.3 µM [inhibitor, partial curve] | –
12 | CCNc1nc(NCC)nc(N(C)N)n1 | inconclusive: 29.1 µM [inhibitor, single point] | –
13 | COc1ccc(Cc2nc3ccc(C(=O)N(C)CC4COCCO4)cc3o2)cc1 (stereo unspecified) | inactive | –
14 | COc1ccc(CNC(=O)c2cccc(C)c2[N+](=O)[O-])cc1 | inconclusive: 28.2 µM [activator, single point] | –
15 | COc1cccc(NC(=O)c2ccc(NC(=O)C(C)(C)C)cc2)c1 | inconclusive: 0.1 µM [inhibitor, full curve, poor fit] | –
16 | OC1CC2CCC(C1)N2CCCN1c2ccccc2Sc2ccc(Cl)cc21 (stereo unspecified) | inconclusive: 8.91 µM [inhibitor, partial curve, poor fit] | –
17 | CCCc1cc(=O)[nH]c(SCc2nc3ccccc3o2)n1 | inactive | –
18 | Cc1ccc(S(=O)c2snnc2C)cc1 (stereo unspecified) | inconclusive: 1.26 µM [inhibitor, partial curve, poor fit] | –
19 | O=S(=O)(c1cccs1)N1CCN(c2ccccc2Cl)CC1 | inactive | –
20 | Cc1cc(C)nc(Nc2ncc(O)n2-c2ccc(Br)cc2)n1 | inconclusive: 6.31 µM [inhibitor, single point] | –
21 | O=C(OCCN1CCN(C2=NS(=O)(=O)c3ccccc32)CC1)c1cccc(Br)c1 | inconclusive: 15.8 µM [inhibitor, single point] | –
22 | COc1ccccc1CNC(=O)N1CCN(c2ccccc2Cl)CC1 | inactive | –
23 | N#CCCN1CCN(C(=S)c2ccc(-c3cc(Cl)ccc3Cl)o2)CC1 | inconclusive: 0.316 µM [inhibitor, partial curve, poor fit] | –
24 | CCOc1ccc(N(CC(=O)NC2CCCC(C)C2C)S(=O)(=O)c2c(C)noc2C)cc1 (stereo unspecified) | inactive | –

Row | SMILES | Potency | activity change, negative = inhibition
25 | O=C1/C(=C/c2cccc(F)c2)Oc2cc(O)ccc21 | inconclusive: 35.5 µM [inhibitor, single point] | –
26 | Cc1ccc(CN(C(=O)COc2cccc([N+](=O)[O-])c2)c2ccccn2)o1 | active: 2.82 µM | –
27 | O=C(NCCOC12CC3CC(CC(C3)C1)C2)c1cccc(Br)c1 | inactive | –
28 | N#CCCN1CCN(C2=NC(=O)C(=C3CCCCC3)S2)CC1 | inconclusive: 5.17 µM [activator, partial curve] | –
29 | CCOC(=O)c1c(C)[nH]c(C(=O)N/N=C/c2cc([N+](=O)[O-])ccc2O)c1C | inconclusive: 8.2 µM [inhibitor, partial curve, poor fit] | –
30 | CCC(NC(=O)Cc1cccs1)c1ccccc1 (stereo unspecified) | inconclusive: 5.62 µM [inhibitor, single point] | –
31 | CC(C)OP(=O)(OC(C)C)C(Nc1ccccc1)c1cccnc1 (stereo unspecified) | inconclusive: 0.112 µM [inhibitor, full curve, poor fit] | –
32 | COc1ccccc1C(=O)Nc1cccc(NC(=O)c2ccccc2OC)n1 | inconclusive: 0.112 µM [inhibitor, full curve, poor fit] | –
33 | O=C(CCN1CCOCC1)NC1CCCN(Cc2ccccc2F)C1 (stereo unspecified) | inconclusive: 35.5 µM [activator, single point] | –
34 | COc1ccc(NC(=O)c2cc3c(CO)cnc(C)c3oc2=Nc2cccc(C)c2)c(OC)c1 | inactive | –
35 | O=C(Nc1cccc(F)c1)Nc1ccc2c(c1)C(=O)OC2 | inactive | –
36 | O=C(CN1C(=O)c2cccnc2Oc2ccc(Cl)cc21)NC1CCCC1 | inactive | –
37 | Cc1cccn2c(=O)nc(SCC(=O)Nc3ccc4c(c3)OCCO4)nc12 | inconclusive: 2.82 µM [activator, single point] | –
38 | COc1nc(-c2ccccc2)ncc1S(=O)(=O)c1ccccc1 | inactive | –
39 | Cn1cccc1C(=O)OCc1csc(-c2ccccc2)n1 | inconclusive: 29.1 µM [inhibitor, single point] | –
40 | CCN(CC(=O)Nc1ccc(Br)cc1)C(=O)Cc1cccc(F)c1 | inconclusive: 2.51 µM [inhibitor, partial curve, poor fit] | –
41 | COc1ccc(C2Nc3ccccc3C(=O)N2Cc2ccco2)cc1CN1C(=O)c2ccccc2C1=O (stereo unspecified) | inactive and inconclusive: 3.16 µM [inhibitor, partial curve, poor fit] | –
42 | Cc1n[nH]c(=S)n1-c1cccc(Cl)c1 | inconclusive: 0.116 µM [activator, single point] | –
43 | O=[N+]([O-])c1cc(O)c2ncccc2c1 | inconclusive: 12.6 µM [inhibitor, partial curve, poor fit] | –
44 | O=C(Nc1cccc(Cl)c1Cl)c1ccc2c(c1)N(Cc1cccc(Cl)c1)C(=O)c1ccccc1S2(=O)=O | inconclusive: 1.26 µM [inhibitor, partial curve, poor fit] | –
45 | NC(=O)c1cc(Sc2ccccc2)nc2ccccc12 | inactive | –
46 | Cc1cc(C)cc(NC(=S)NC2CC3CCC(C2)N3Cc2ccco2)c1 (stereo unspecified) | inconclusive: 20 µM [inhibitor, single point] | –
47 | Cc1ccc(OCCSc2ncccn2)c(C)c1 | inconclusive: 7.08 µM [inhibitor, partial curve, poor fit] | –
48 | O=C(CSc1ccccn1)NCc1ccc2c(c1)OCO2 | inconclusive: 8.91 µM [activator, single point] | –

Row | SMILES | Potency | activity change, negative = inhibition
49 | CC(CCC(=O)OC[C@H]1O[C@H](C#Cc2ccccc2)C=C[C@H]1Oc1ccc(C)cc1)=NOC[C@@H](O)COCc1ccco1 | inactive | –
50 | O=C(COC(=O)c1ccc[nH]c1=O)c1ccc(Cl)s1 | inconclusive: 4.11 µM [activator, full curve, poor fit] | –
51 | CCCCCC(=O)N(O)C1CC(=O)N(c2ccccc2)C1=O (stereo unspecified) | inactive | –
52 | Cc1cccc(OCc2nc3ccccc3c(=O)n2N)c1 | inconclusive: 1.26 µM [activator, single point] | –
53 | CCCNC(=O)c1c(N)n(Cc2ccco2)c2nc3ccccc3nc12 | inconclusive: 29.1 µM [inhibitor, single point] | –
54 | CCCCNC(=S)N/N=C/C1=CCC2CC1C2(C)C (stereo unspecified) | inconclusive: 8.2 µM [inhibitor, partial curve, poor fit] | –
55 | COc1cc(C(=O)NN=Cc2ccc(N(CCCl)CCCl)cc2)cc(OC)c1OC | inconclusive: 7.94 µM [inhibitor, full curve, poor fit] | –
56 | Cc1c(Cl)cccc1NC(=O)CSc1nncn1-c1ccccn1 | inconclusive: 31.6 µM [activator, single point] | –
57 | CC1CCN(Cc2c(O)ccc3c2O/C(=C\c2ccco2)C3=O)CC1 | inactive | –
58 | O=C(CSc1nc2ccccc2[nH]1)Nc1ccc(F)c(F)c1 | inactive | –
59 | Nc1ncnc(Nc2c(F)cccc2F)n1 | inconclusive: 6.31 µM [inhibitor, single point] | –
60 | O=C(C1CC(=O)N(c2ccc3c(c2)OCCO3)C1)N1CCN(S(=O)(=O)c2cccc(F)c2)CC1 (stereo unspecified) | inactive | –
61 | CCOc1ccc(CCNC(=O)C2CCCN(c3ncnc4c3nc3n4CCCCC3)C2)cc1 (stereo unspecified) | inconclusive: 3.16 µM [inhibitor, single point] | –
62 | CCOC(=O)c1c(NC(=O)C(=O)N/N=C/c2ccccc2OC)sc2c1CCCCC2 | inconclusive: 5.01 µM [activator, partial curve, poor fit] | –
63 | Nc1nc(NCc2ccco2)nc(N2CCCCC2)c1[N+](=O)[O-] | active: 10 µM | –
64 | CC(=O)Nc1ccc(S(=O)(=O)NCCC(=O)OCc2nc(N)nc(Nc3ccccc3C)n2)cc1 | inactive | –
65 | Cc1ccn2c(Nc3ccc4c(c3)OCCO4)c(-c3ccc(Cl)s3)nc2c1 | inconclusive: 17.8 µM [activator, partial curve, poor fit] | –
66 | Nc1nnc(SCC(=O)Nc2ccccc2C(F)(F)F)s1 | inconclusive: 11.2 µM [inhibitor, single point] | –
67 | NNC(=O)c1ccc2nc(-c3ccc(Br)cc3)cn2c1 | inconclusive: 15.8 µM [inhibitor, single point] | –
68 | CN(c1ccccc1)S(=O)(=O)c1ccc(Cl)c(C(=O)NCC(c2ccco2)N2CCCC2)c1 (stereo unspecified) | inconclusive: 0.316 µM [activator, partial curve, poor fit] | –
69 | COc1cccc(NC(=O)CN2C(=O)NC(C)(c3ccc(C)cc3)C2=O)c1 (stereo unspecified) | inactive | –
70 | COc1ccc(-c2csc(NC(=S)NC(=O)c3ccccc3)n2)cc1Br | inactive | –
71 | COc1ccc(S(=O)(=O)NC(C)c2ccccc2)cc1C(=O)N1CCCCC1 (stereo unspecified) | – | inconclusive: 6.02% [activator]
